PubChem BioAssay AID1159584 – Peter MacCallum Cancer Centre | 2016
The whole screen tested about 18,000 reagents; shown is a part drawn at random. Not all columns of the deposit are shown. No sequences are given here. Not stated in the record: the amount of reagent, the time to read-out.

- Assay: 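Genes whose loss is lethal only together with E-cadherin loss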 (primary screen)
- Cell system: human MCF10A breast epithelial cells, parental and CDH1-null
- Knock-down reagent: siRNA against human genes
- Measured: 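Cell viability by CellTiter-Glo ATP luminescence, each line scaled to the mean of mock wells across plates, then CDH1-null over parental ratio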
- Direction: CDH1-null / parental viability ratio: higher = CDH1-null cells survive relatively better than parental

gene | CDH1-null / parental viability ratio
TRPM1 | 1.21
SOX30 | 1.12
MC3R | 2.15
PGA5 | 1.15
TNNI1 | 0.93
TBC1D2 | 0.88
FAT1 | 0.88
SI | 1.05
TRIM42 | 1.02
ZC2HC1A | 1.02
TFAP4 | 1.03
ALG9 | 0.96
LAIR2 | 1.09
ZNF410 | 0.95
BRDT | 0.91
ELOVL3 | 1.06
CDC42BPG | 0.91
SAP130 | 1.13
SNTB1 | 0.83
ATP6V0D1 | 0.97
KCNQ2 | 1.48
CCDC117 | 1.08
CASP7 | 1.15
SLC35D3 | 0.94
IDI2 | 0.92
ARRDC1 | 0.93
LYST | 0.72
PNPLA7 | 1.12
LCE3D | 1.27
NUP88 | 1.19
ARID5A | 0.99
PCDH9 | 0.87
NKX6-3 | 1.24
MASP2 | 1.17
SSR4 | 1.29
COL12A1 | 0.84
PUS10 | 1.08
SLC39A10 | 1.08
UTRN | 1.02
RIPPLY2 | 0.78
HDHD3 | 1.08
PHYHD1 | 1.05
OR4D9 | 1.12
PRRG4 | 1.08
H2AC4 | 0.8
YBX3 | 0.75
RTL6 | 1.1
DUSP2 | 1.54
GABRA1 | 1.04
AKR1C1 | 1.21
CDCA8 | 1.44
OR10A3 | 1.01
HEBP1 | 1.21
MYOM1 | 1.05
ZNF709 | 0.95
DRC7 | 1
EIF3B | 1.24
OR2A12 | 0.71
LENG9 | 0.76
NUDT22 | 0.99
CPA4 | 1.11
ITIH5 | 0.9
EPHX1 | 0.89
RBM46 | 1.06
AFMID | 1.05
TMEM154 | 1.08
DCP1B | 1.23
UNC13A | 1.12
